Results are given in words; binding and its absence hold for the method and conditions named. In cells and extracts the contact can be indirect. These calls come from enrichment with a bait or labelling near it, and not all partners need be listed. Tags and fused reporters may be left off the sequences shown.

By UniProt entry, the sequences of proteins in these tests, tags left out. Residues count along the entry.
UniProt P60468: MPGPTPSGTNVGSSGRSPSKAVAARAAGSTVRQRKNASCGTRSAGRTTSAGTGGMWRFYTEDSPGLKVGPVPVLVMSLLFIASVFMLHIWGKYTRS
UniProt Q15005: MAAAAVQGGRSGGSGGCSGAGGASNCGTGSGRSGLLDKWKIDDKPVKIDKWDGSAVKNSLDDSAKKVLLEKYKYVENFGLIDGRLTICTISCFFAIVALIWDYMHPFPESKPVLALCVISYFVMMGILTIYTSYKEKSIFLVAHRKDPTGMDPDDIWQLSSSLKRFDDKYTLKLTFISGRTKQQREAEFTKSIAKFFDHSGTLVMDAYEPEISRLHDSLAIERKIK
UniProt Q969V3, residues 43-563: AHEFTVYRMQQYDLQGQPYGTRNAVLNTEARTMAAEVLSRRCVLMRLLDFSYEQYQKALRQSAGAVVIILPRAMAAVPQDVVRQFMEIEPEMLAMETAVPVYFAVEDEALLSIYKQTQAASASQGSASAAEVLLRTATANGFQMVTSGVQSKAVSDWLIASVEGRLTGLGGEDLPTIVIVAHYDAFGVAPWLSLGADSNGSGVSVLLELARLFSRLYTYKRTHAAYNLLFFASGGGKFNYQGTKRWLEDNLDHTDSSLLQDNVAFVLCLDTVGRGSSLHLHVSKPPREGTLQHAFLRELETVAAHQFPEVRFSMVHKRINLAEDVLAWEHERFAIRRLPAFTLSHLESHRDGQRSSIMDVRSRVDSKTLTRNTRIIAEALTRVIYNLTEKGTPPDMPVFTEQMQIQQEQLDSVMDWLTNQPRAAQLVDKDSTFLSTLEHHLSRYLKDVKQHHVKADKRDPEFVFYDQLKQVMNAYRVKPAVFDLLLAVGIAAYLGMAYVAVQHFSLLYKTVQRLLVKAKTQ
UniProt Q9UBS4, residues 23-358: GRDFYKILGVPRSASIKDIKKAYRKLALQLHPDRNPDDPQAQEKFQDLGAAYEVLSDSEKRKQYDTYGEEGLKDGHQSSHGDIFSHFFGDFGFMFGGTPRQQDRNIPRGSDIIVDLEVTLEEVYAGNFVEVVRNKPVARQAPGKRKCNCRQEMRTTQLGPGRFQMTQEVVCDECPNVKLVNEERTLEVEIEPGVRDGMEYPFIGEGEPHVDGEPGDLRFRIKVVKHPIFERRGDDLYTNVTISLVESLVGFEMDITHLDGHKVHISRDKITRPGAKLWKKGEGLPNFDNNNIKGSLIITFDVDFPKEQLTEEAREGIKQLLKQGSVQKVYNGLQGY
UniProt P61619: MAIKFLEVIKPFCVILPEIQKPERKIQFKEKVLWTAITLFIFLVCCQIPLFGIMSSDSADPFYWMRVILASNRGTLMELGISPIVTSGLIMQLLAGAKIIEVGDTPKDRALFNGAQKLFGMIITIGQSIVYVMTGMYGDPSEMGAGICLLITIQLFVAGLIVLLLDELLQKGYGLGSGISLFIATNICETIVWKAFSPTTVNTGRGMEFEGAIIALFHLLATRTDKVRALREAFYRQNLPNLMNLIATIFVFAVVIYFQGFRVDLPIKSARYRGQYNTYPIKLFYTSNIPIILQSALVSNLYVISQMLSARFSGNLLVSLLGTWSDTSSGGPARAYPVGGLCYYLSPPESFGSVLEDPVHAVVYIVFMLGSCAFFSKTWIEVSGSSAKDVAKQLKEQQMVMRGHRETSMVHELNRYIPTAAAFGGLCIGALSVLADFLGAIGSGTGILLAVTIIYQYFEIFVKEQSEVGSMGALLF
UniProt P11021, residues 19-654: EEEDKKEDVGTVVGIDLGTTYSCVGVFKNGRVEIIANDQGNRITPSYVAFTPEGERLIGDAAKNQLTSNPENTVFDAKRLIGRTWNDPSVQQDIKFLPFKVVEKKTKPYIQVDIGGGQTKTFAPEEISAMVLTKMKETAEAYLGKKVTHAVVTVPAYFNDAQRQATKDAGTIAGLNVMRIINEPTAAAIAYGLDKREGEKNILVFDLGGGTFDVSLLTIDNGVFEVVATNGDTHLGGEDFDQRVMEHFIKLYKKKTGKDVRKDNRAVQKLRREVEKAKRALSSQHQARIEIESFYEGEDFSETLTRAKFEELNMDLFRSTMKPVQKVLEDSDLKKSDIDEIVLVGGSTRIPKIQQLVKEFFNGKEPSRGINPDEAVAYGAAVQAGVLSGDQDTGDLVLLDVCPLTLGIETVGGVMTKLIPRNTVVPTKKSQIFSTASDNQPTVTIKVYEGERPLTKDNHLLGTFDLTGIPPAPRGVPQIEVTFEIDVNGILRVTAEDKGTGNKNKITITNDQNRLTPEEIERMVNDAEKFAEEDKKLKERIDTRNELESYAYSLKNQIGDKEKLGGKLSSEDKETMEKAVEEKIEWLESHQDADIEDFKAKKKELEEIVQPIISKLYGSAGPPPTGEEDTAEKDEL
UniProt P14625, residues 22-803: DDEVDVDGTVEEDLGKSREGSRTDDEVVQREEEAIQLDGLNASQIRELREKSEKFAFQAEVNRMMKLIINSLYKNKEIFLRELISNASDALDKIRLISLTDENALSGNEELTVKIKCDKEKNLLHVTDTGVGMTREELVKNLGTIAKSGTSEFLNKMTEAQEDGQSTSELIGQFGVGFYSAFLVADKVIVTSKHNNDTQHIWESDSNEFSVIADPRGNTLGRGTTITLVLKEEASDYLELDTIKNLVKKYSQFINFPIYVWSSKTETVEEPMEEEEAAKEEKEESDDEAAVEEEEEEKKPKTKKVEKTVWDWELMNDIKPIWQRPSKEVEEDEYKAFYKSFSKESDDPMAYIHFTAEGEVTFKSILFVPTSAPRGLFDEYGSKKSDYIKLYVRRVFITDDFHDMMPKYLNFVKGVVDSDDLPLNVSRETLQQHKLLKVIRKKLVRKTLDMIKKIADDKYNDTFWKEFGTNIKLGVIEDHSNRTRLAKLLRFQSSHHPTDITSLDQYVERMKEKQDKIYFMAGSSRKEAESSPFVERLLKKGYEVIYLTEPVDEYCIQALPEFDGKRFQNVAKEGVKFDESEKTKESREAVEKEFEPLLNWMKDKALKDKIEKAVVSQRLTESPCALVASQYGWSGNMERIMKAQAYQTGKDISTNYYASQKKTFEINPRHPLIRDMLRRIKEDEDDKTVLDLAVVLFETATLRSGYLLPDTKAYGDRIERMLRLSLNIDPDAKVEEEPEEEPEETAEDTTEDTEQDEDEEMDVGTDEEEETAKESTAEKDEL
UniProt P27824, residues 21-592: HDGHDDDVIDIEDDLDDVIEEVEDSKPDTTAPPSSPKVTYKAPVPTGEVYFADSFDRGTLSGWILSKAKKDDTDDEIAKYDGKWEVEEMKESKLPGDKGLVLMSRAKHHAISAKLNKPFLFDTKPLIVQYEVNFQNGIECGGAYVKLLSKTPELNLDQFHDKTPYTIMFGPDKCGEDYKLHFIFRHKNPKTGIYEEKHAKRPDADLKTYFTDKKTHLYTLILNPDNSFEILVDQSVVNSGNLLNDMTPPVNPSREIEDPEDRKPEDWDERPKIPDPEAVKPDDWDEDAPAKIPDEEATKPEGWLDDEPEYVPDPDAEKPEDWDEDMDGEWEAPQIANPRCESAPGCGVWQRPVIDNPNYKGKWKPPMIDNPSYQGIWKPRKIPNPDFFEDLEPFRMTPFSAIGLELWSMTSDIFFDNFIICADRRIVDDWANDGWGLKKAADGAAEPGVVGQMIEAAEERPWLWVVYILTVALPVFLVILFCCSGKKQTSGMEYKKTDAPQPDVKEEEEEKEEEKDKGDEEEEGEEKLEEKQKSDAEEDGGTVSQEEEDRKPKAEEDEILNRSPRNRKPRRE
UniProt Q9UGP8: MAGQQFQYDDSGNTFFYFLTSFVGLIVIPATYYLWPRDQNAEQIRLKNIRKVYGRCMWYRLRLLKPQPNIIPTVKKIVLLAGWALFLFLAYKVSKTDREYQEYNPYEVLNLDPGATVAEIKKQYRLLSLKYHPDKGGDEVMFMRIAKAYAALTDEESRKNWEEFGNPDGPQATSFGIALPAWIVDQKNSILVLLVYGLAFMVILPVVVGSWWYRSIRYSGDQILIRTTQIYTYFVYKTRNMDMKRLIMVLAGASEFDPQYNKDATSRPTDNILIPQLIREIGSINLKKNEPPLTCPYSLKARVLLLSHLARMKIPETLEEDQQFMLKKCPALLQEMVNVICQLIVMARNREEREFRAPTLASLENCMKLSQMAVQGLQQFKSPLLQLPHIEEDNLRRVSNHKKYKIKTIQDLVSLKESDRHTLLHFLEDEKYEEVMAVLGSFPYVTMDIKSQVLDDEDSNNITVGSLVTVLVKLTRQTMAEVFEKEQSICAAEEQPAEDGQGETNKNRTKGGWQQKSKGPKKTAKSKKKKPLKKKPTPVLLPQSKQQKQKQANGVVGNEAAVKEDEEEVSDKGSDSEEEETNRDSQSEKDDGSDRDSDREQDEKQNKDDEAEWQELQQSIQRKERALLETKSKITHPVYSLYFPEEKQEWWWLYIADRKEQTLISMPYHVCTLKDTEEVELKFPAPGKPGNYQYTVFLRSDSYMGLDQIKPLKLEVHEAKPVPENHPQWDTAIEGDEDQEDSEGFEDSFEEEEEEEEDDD
UniProt P30101, residues 25-505: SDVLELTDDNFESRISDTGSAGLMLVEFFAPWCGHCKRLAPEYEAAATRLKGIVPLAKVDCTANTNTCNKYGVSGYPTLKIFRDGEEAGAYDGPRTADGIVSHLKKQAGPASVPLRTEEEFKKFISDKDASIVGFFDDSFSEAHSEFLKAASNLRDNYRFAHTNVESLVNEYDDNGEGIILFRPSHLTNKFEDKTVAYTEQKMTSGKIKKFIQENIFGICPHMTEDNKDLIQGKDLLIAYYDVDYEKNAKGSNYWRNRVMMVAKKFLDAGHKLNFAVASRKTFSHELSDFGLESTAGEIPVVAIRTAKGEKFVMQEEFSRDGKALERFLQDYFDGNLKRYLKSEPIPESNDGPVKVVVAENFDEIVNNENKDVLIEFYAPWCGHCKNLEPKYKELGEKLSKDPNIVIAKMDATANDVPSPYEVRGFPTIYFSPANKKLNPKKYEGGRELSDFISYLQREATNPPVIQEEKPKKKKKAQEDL
UniProt P23284, residues 34-216: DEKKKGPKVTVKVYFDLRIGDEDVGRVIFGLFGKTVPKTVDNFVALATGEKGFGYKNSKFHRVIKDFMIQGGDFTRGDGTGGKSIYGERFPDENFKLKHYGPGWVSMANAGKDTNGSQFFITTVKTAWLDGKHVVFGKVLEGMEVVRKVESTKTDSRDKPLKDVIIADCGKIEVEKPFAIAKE

To fix the notation:
T1: Hspa13 with a C-terminal Flag (human) (UniProt P48723)
T1 sequence: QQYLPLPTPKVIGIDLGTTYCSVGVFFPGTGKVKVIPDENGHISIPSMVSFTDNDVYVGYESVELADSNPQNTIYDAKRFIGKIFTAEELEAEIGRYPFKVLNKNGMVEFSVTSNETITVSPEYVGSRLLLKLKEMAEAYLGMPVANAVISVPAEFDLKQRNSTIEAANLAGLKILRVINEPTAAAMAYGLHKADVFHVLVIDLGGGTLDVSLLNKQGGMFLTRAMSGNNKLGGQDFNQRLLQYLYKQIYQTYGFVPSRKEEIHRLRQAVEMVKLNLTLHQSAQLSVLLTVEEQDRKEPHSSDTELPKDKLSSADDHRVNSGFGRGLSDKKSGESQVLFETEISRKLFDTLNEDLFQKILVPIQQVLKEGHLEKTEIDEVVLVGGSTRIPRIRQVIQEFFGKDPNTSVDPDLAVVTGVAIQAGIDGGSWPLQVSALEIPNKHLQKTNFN

B1: SEC11A (protein, UniProt P67812 1-179)
chain: MLSLDFLDDVRRMNKRQLYYQVLNFGMIVSSALMIWKGLMVITGSESPIVVVLSGSMEPAFHRGDLLFLTNRVEDPIRVGEIVVFRIEGREIPIVHRVLKIHEKQNGHIKFLTKGDNNAVDDRGLYKQGQHWLEKKDVVGRARGFVPYIGIVTILMNDYPKFKYAVLFLLGLFVLVHRE
B2: GANAB (protein, UniProt Q14697 29-944)
chain: ITLAVDRSNFKTCEESSFCKRQRSIRPGLSPYRALLDSLQLGPDSLTVHLIHEVTKVLLVLELQGLQKNMTRFRIDELEPRRPRYRVPDVLVADPPIARLSVSGRDENSVELTMAEGPYKIILTARPFRLDLLEDRSLLLSVNARGLLEFEHQRAPRVSQGSKDPAEGDGAQPEETPRDGDKPEETQGKAEKDEPGAWEETFKTHSDSKPYGPMSVGLDFSLPGMEHVYGIPEHADNLRLKVTEGGEPYRLYNLDVFQYELYNPMALYGSVPVLLAHNPHRDLGIFWLNAAETWVDISSNTAGKTLFGKMMDYLQGSGETPQTDVRWMSETGIIDVFLLLGPSISDVFRQYASLTGTQALPPLFSLGYHQSRWNYRDEADVLEVDQGFDDHNLPCDVIWLDIEHADGKRYFTWDPSRFPQPRTMLERLASKRRKLVAIVDPHIKVDSGYRVHEELRNLGLYVKTRDGSDYEGWCWPGSAGYPDFTNPTMRAWWANMFSYDNYEGSAPNLFVWNDMNEPSVFNGPEVTMLKDAQHYGGWEHRDVHNIYGLYVHMATADGLRQRSGGMERPFVLARAFFAGSQRFGAVWTGDNTAEWDHLKISIPMCLSLGLVGLSFCGADVGGFFKNPEPELLVRWYQMGAYQPFFRAHAHLDTGRREPWLLPSQHNDIIRDALGQRYSLLPFWYTLLYQAHREGIPVMRPLWVQYPQDVTTFNIDDQYLLGDALLVHPVSDSGAHGVQVYLPGQGEVWYDIQSYQKHHGPQTLYLPVTLSSIPVFQRGGTIVPRWMRVRRSSECMKDDPITLFVALSPQGTAQGELFLDDGHTFNYQTRQEFLLRRFSFSGNTLVSSSADPEGHFETPIWIERVVIIGAGKPAAVVLQTKGSPESRLSFQHDPETSVLVLRKPGINVASDWSIHLR
B3: DDOST (protein, UniProt P39656 43-456)
chain: SGPRTLVLLDNLNVRETHSLFFRSLKDRGFELTFKTADDPSLSLIKYGEFLYDNLIIFSPSVEDFGGNINVETISAFIDGGGSVLVAASSDIGDPLRELGSECGIEFDEEKTAVIDHHNYDISDLGQHTLIVADTENLLKAPTIVGKSSLNPILFRGVGMVADPDNPLVLDILTGSSTSYSFFPDKPITQYPHAVGKNTLLIAGLQARNNARVIFSGSLDFFSDSFFNSAVQKAAPGSQRYSQTGNYELAVALSRWVFKEEGVLRVGPVSHHRVGETAPPNAYTVTDLVEYSIVIQQLSNGKWVPFDGDDIQLEFVRIDPFVRTFLKKKGGKYSVQFKLPDVYGVFQFKVDYNRLGYTHLYSSTQVSVRPLQHTQYERFIPSAYPYYASAFSMMLGLFIFSIVFLHMKEKEKSD
B4: STT3B (protein, UniProt Q8TCJ2 1-826)
chain: MAEPSAPESKHKSSLNSSPWSGLMALGNSRHGHHGPGAQCAHKAAGGAAPPKPAPAGLSGGLSQPAGWQSLLSFTILFLAWLAGFSSRLFAVIRFESIIHEFDPWFNYRSTHHLASHGFYEFLNWFDERAWYPLGRIVGGTVYPGLMITAGLIHWILNTLNITVHIRDVCVFLAPTFSGLTSISTFLLTRELWNQGAGLLAACFIAIVPGYISRSVAGSFDNEGIAIFALQFTYYLWVKSVKTGSVFWTMCCCLSYFYMVSAWGGYVFIINLIPLHVFVLLLMQRYSKRVYIAYSTFYIVGLILSMQIPFVGFQPIRTSEHMAAAGVFALLQAYAFLQYLRDRLTKQEFQTLFFLGVSLAAGAVFLSVIYLTYTGYIAPWSGRFYSLWDTGYAKIHIPIIASVSEHQPTTWVSFFFDLHILVCTFPAGLWFCIKNINDERVFVALYAISAVYFAGVMVRLMLTLTPVVCMLSAIAFSNVFEHYLGDDMKRENPPVEDSSDEDDKRNQGNLYDKAGKVRKHATEQEKTEEGLGPNIKSIVTMLMLMLLMMFAVHCTWVTSNAYSSPSVVLASYNHDGTRNILDDFREAYFWLRQNTDEHARVMSWWDYGYQIAGMANRTTLVDNNTWNNSHIALVGKAMSSNETAAYKIMRTLDVDYVLVIFGGVIGYSGDDINKFLWMVRIAEGEHPKDIRESDYFTPQGEFRVDKAGSPTLLNCLMYKMSYYRFGEMQLDFRTPPGFDRTRNAEIGNKDIKFKHLEEAFTSEHWLVRIYKVKAPDNRETLDHKPRVTNIFPKQKYLSKKTTKRKRGYIKNKLVFKKGKKISKKTV
B5: STT3A (protein, UniProt P46977 1-705)
chain: MTKFGFLRLSYEKQDTLLKLLILSMAAVLSFSTRLFAVLRFESVIHEFDPYFNYRTTRFLAEEGFYKFHNWFDDRAWYPLGRIIGGTIYPGLMITSAAIYHVLHFFHITIDIRNVCVFLAPLFSSFTTIVTYHLTKELKDAGAGLLAAAMIAVVPGYISRSVAGSYDNEGIAIFCMLLTYYMWIKAVKTGSICWAAKCALAYFYMVSSWGGYVFLINLIPLHVLVLMLTGRFSHRIYVAYCTVYCLGTILSMQISFVGFQPVLSSEHMAAFGVFGLCQIHAFVDYLRSKLNPQQFEVLFRSVISLVGFVLLTVGALLMLTGKISPWTGRFYSLLDPSYAKNNIPIIASVSEHQPTTWSSYYFDLQLLVFMFPVGLYYCFSNLSDARIFIIMYGVTSMYFSAVMVRLMLVLAPVMCILSGIGVSQVLSTYMKNLDISRPDKKSKKQQDSTYPIKNEVASGMILVMAFFLITYTFHSTWVTSEAYSSPSIVLSARGGDGSRIIFDDFREAYYWLRHNTPEDAKVMSWWDYGYQITAMANRTILVDNNTWNNTHISRVGQAMASTEEKAYEIMRELDVSYVLVIFGGLTGYSSDDINKFLWMVRIGGSTDTGKHIKENDYYTPTGEFRVDREGSPVLLNCLMYKMCYYRFGQVYTEAKRPPGFDRVRNAEIGNKDFELDVLEEAYTTEHWLVRIYKVKDLDNRGLSRT
B6: MAGT1 (protein, UniProt Q9H0U3 30-335)
chain: QRKKEMVLSEKVSQLMEWTNKRPVIRMNGDKFRRLVKAPPRNYSVIVMFTALQLHRQCVVCKQADEEFQILANSWRYSSAFTNRIFFAMVDFDEGSDVFQMLNMNSAPTFINFPAKGKPKRGDTYELQVRGFSAEQIARWIADRTDVNIRVIRPPNYAGPLMLGLLLAVIGGLVYLRRSNMEFLFNKTGWAFAALCFVLAMTSGQMWNHIRGPPYAHKNPHTGHVNYIHGSSQAQFVAETHIVLLFNGGVTLGMVLLCEAATSDMDIGKRKIMCVAGIGLVVLFFSWMLSIFRSKYHGYPYSFLMS
B7: Hsp47 (protein, UniProt P50454 19-418)
chain: AEVKKPAAAAAPGTAEKLSPKAATLAERSAGLAFSLYQAMAKDQAVENILVSPVVVASSLGLVSLGGKATTASQAKAVLSAEQLRDEEVHAGLGELLRSLSNSTARNVTWKLGSRLYGPSSVSFADDFVRSSKQHYNCEHSKINFRDKRSALQSINEWAAQTTDGKLPEVTKDVERTDGALLVNAMFFKPHWDEKFHHKMVDNRGFMVTRSYTVGVMMMHRTGLYNYYDDEKEKLQIVEMPLAHKLSSLIILMPHHVEPLERLEKLLTKEQLKIWMGKMQKKAVAISLPKGVVEVTHDLQKHLAGLGLTEAIDKNKADLSRMSGKKDLYLASVFHATAFELDTDGNPFDQDIYGREELRSPKLFYADHPFIFLVRDTQSGSLLFIGRLVRPKGDKMRDEL
B8: RPN1 (protein, UniProt P04843 24-607)
chain: ASSEAPPLINEDVKRTVDLSSHLAKVTAEVVLAHLGGGSTSRATSFLLALEPELEARLAHLGVQVKGEDEEENNLEVRETKIKGKSGRFFTVKLPVALDPGAKISVIVETVYTHVLHPYPTQITQSEKQFVVFEGNHYFYSPYPTKTQTMRVKLASRNVESYTKLGNPTRSEDLLDYGPFRDVPAYSQDTFKVHYENNSPFLTITSMTRVIEVSHWGNIAVEENVDLKHTGAVLKGPFSRYDYQRQPDSGISSIRSFKTILPAAAQDVYYRDEIGNVSTSHLLILDDSVEMEIRPRFPLFGGWKTHYIVGYNLPSYEYLYNLGDQYALKMRFVDHVFDEQVIDSLTVKIILPEGAKNIEIDSPYEISRAPDELHYTYLDTFGRPVIVAYKKNLVEQHIQDIVVHYTFNKVLMLQEPLLVVAAFYILFFTVIIYVRLDFSITKDPAAEARMKVACITEQVLTLVNKRIGLYRHFDETVNRYKQSRDISTLNSGKKSLETEHKALTSEIALLQSRLKTEGSDLCDRVSEMQKLDAQVKELVLKSAVEAERLVAGKLKKDTYIENEKLISGKRQELVTKIDHILDAL
B9: SPCS3 (protein, UniProt P61009 1-180)
chain: MNTVLSRANSLFAFSLSVMAALTFGCFITTAFKDRSVPVRLHVSRIMLKNVEDFTGPRERSDLGFITFDITADLENIFDWNVKQLFLYLSAEYSTKNNALNQVVLWDKIVLRGDNPKLLLKDMKTKYFFFDDGNGLKGNRNVTLTLSWNVVPNAGILPLVTGSGHVSVPFPDTYEITKSY

This test deals with T1, Hspa13 with a C-terminal Flag (human). The test can be described thus: affinity purification with mass spectrometry; HEK293T overexpressing Hspa13^Flag or mock (eGFP), crosslinked in cells with 1 mM DSP for 30 min, quenched, lysed; M2 anti-Flag Dynabeads; stringent RIPA washes; TMT, MuDPIT; 5% FDR.
Take Sec61b (from UniProt P60468 1-96): the binding entry was “binds”.

As to SPCS2 (from UniProt Q15005 1-226), the binding entry is given as “binds”.

Take NCLN (from UniProt Q969V3 43-563): the binding entry is “binds”.

Turning to “ERdj3/DNAJB11 (from UniProt Q9UBS4 23-358)”, the binding result is “binds”.

Regarding Erp29 (from UniProt P30040 33-261), the binding result is recorded as “binds”.

As to Sec61a1 (from UniProt P61619 1-476), the binding result is listed as “binds”.

Take “binding immunoglobulin protein (BiP), endogenous (from UniProt P11021 19-654)”: the binding entry is “binds”.

As for “Grp94/HSPB90B1 (from UniProt P14625 22-803)”, the binding result is on record as “binds”.

calnexin (from UniProt P27824 21-592): the binding entry is listed as “binds”.

Take Sec63 (from UniProt Q9UGP8 1-760): the binding entry is recorded as “binds”.

As for PDIA3 (from UniProt P30101 25-505), the binding entry was “binds”.

Consider PPIB (from UniProt P23284 34-216), for which the binding entry is “binds”.

Take B1: the binding result is given as “binds”.

In the case of B2, the binding result is listed as “binds”.

For B3, the binding entry was “binds”.

Take B4: the binding entry is reported as “binds”.

Turning to B5, the binding result is recorded as “binds”.

For the molecule B6, the binding result is listed as “binds”.

Consider B7, for which the binding result is “binds”.

B8: the binding entry is “binds”.

Take B9: the binding result is listed as “binds”.

Values taken from PMC9691929.
